Laboratory results reported in US10195164B2, “Use of disulfiram for inflammatory breast cancer therapy” (Duke University, priority 2015, dated 2019).
At least one compound was matched to its structure with a doubt left.

Assays:
[1] = system: ctr1/ctr3Δ mutant MPY17 S. cerevisiae cells; assay: Complementation of S. cerevisiae Cu+-transport mutants; assay type: cell-based, Saccharomyces cerevisiae; conditions: YPEG media, 30° C., 3 days, absorbance at 600 nm
Experimental: SEY6210 (wild type) (Robinson et al., 1988) and ctr1/ctr3Δ mutant MPY17 S. cerevisiae cells (Pena et al., 1998) were grown in YPEG media (3% ethanol, 3% glycerol, 1% yeast extract, 2% Bacto Peptone, 2% agar) with addition of 0-50 μM known Cu ionophore, zinc pyrithione (ZPT) (Reeder et al., 2011), or DSF. Cells were allowed to grow at 30° C. for 3 days; growth was assessed by measuring optical density at 600 nm on a Spectramax Plus 384 plate reader (Molecular Devices).

ALDH = assay: ALDEFLUOR assay; assay type: cell-based, human; conditions: SUM149 cells, 24 h, sub-lethal dose
Experimental: ALDH enzymatic activity was assessed using the ALDEFLUOR kit (Stem Cell Technologies) according to the manufacturer's instructions. Briefly, cells were incubated with ALDH substrate for 35 minutes at 37° C. The specific ALDH inhibitor diethylaminobenzaldehyde (DEAB) was used as negative control. Sorting gates were established using 7-AAD stained cells for viability and ALDEFLUOR-stained cells treated with DEAB as negative controls. Dot plots from a representative experiment are shown with mean±SEM from four experiments.

CCN(CC)C(=S)SSC(=S)N(CC)CC [DSF, Disulfiram]
growth of MPY17 cells [1]: enhanced their growth similar to ZPT treatment
ALDH+ population (ALDH): neither DSF nor Cu alone affected
